Counter-ions that a name gives are not always drawn. The list shows a part of the results. Repeats in this data set agree poorly, so a single value says little.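 Screen of FDA-approved drugs, each combined with colistin at one-eighth of its MIC, against a multidrug-resistant mcr-1-positive clinical E. coli isolate; growth read as OD600 after 24 h. Bacteria without drug were the growth control and plain broth the blank. A combination counted as active when OD600 fell below 0.2.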
The molecules below were run on Escherichia coli 42 (mcr-1-positive clinical isolate) (assay: OD600 after 24 h growth with compound plus colistin (absorbance units (OD600)); higher = more bacterial growth (less inhibition)). Conditions: first compound 25 µM; colistin concentration 0.5 ug/mL; incubation time 24 h; 37 °C.

How did the OD600 turn out when COC(=O)N[C@H](C(=O)N[C@@H](Cc1ccccc1)[C@@H](O)CN(Cc1ccc(-c2ccccn2)cc1)NC(=O)[C@@H](NC(=O)OC)C(C)(C)C)C(C)(C)C [Atazanavir sulfate] + CCC(C)CCCC(=O)N[C@@H](CCN)C(=O)N[C@H](C(=O)N[C@@H](CCN)C(=O)N[C@H]1CCNC(=O)[C@H]([C@@H](C)O)NC(=O)[C@H](CCN)NC(=O)[C@H](CCN)NC(=O)[C@H](CC(C)C)NC(=O)[C@@H](CC(C)C)NC(=O)[C@H](CCN)NC1=O)[C@@H](C)O [colistin] was run?
The OD600 was inactive: 1.16.

For CCN(CC)CCOC(=O)c1ccc(N)cc1 [Procaine hydrochloride] + CCC(C)CCCC(=O)N[C@@H](CCN)C(=O)N[C@H](C(=O)N[C@@H](CCN)C(=O)N[C@H]1CCNC(=O)[C@H]([C@@H](C)O)NC(=O)[C@H](CCN)NC(=O)[C@H](CCN)NC(=O)[C@H](CC(C)C)NC(=O)[C@@H](CC(C)C)NC(=O)[C@H](CCN)NC1=O)[C@@H](C)O [colistin], which OD600 is on record?
The OD600 was inactive: 0.99.

With Clc1ccc2c(c1)C(N1CCNCC1)=Nc1ccccc1O2 [Amoxapine] + CCC(C)CCCC(=O)N[C@@H](CCN)C(=O)N[C@H](C(=O)N[C@@H](CCN)C(=O)N[C@H]1CCNC(=O)[C@H]([C@@H](C)O)NC(=O)[C@H](CCN)NC(=O)[C@H](CCN)NC(=O)[C@H](CC(C)C)NC(=O)[C@@H](CC(C)C)NC(=O)[C@H](CCN)NC1=O)[C@@H](C)O [colistin] as the molecule, how does the OD600 read?
The OD600 was inactive: 1.05.

How did the OD600 turn out when CN(C)CCOC(C)(c1ccccc1)c1ccccn1 (centres undefined) [Doxylamine succinate] + CCC(C)CCCC(=O)N[C@@H](CCN)C(=O)N[C@H](C(=O)N[C@@H](CCN)C(=O)N[C@H]1CCNC(=O)[C@H]([C@@H](C)O)NC(=O)[C@H](CCN)NC(=O)[C@H](CCN)NC(=O)[C@H](CC(C)C)NC(=O)[C@@H](CC(C)C)NC(=O)[C@H](CCN)NC1=O)[C@@H](C)O [colistin] was run?
The OD600 was inactive: 1.06.

How did the OD600 turn out when Nc1ccn([C@H]2CC[C@@H](CO)O2)c(=O)n1 [Zalcitabine] + CCC(C)CCCC(=O)N[C@@H](CCN)C(=O)N[C@H](C(=O)N[C@@H](CCN)C(=O)N[C@H]1CCNC(=O)[C@H]([C@@H](C)O)NC(=O)[C@H](CCN)NC(=O)[C@H](CCN)NC(=O)[C@H](CC(C)C)NC(=O)[C@@H](CC(C)C)NC(=O)[C@H](CCN)NC1=O)[C@@H](C)O [colistin] was run?
The OD600 was inactive: 1.17.

With CO/N=C(\C(=O)N[C@@H]1C(=O)N2C(C(=O)O)=C(CSc3nnnn3C)CS[C@H]12)c1csc(N)n1 [Cefmenoxime hydrochloride] + CCC(C)CCCC(=O)N[C@@H](CCN)C(=O)N[C@H](C(=O)N[C@@H](CCN)C(=O)N[C@H]1CCNC(=O)[C@H]([C@@H](C)O)NC(=O)[C@H](CCN)NC(=O)[C@H](CCN)NC(=O)[C@H](CC(C)C)NC(=O)[C@@H](CC(C)C)NC(=O)[C@H](CCN)NC1=O)[C@@H](C)O [colistin] as the molecule, how does the OD600 read?
The OD600 was active: 0.055.

With CC(C)(O)CNc1nc(Nc2ccnc(C(F)(F)F)c2)nc(-c2cccc(C(F)(F)F)n2)n1 [Enasidenib] + CCC(C)CCCC(=O)N[C@@H](CCN)C(=O)N[C@H](C(=O)N[C@@H](CCN)C(=O)N[C@H]1CCNC(=O)[C@H]([C@@H](C)O)NC(=O)[C@H](CCN)NC(=O)[C@H](CCN)NC(=O)[C@H](CC(C)C)NC(=O)[C@@H](CC(C)C)NC(=O)[C@H](CCN)NC1=O)[C@@H](C)O [colistin] as the molecule, how does the OD600 read?
Its OD600 is inactive: 1.01.

With CN1CCC(=C2c3ccccc3CC(=O)c3sccc32)CC1 [Ketotifen fumarate] + CCC(C)CCCC(=O)N[C@@H](CCN)C(=O)N[C@H](C(=O)N[C@@H](CCN)C(=O)N[C@H]1CCNC(=O)[C@H]([C@@H](C)O)NC(=O)[C@H](CCN)NC(=O)[C@H](CCN)NC(=O)[C@H](CC(C)C)NC(=O)[C@@H](CC(C)C)NC(=O)[C@H](CCN)NC1=O)[C@@H](C)O [colistin] as the molecule, how does the OD600 read?
The OD600 was inactive: 0.869.

How did the OD600 turn out when O=c1[nH]c(=O)n([C@H]2C[C@H](O)[C@@H](CO)O2)cc1F [Floxuridine] + CCC(C)CCCC(=O)N[C@@H](CCN)C(=O)N[C@H](C(=O)N[C@@H](CCN)C(=O)N[C@H]1CCNC(=O)[C@H]([C@@H](C)O)NC(=O)[C@H](CCN)NC(=O)[C@H](CCN)NC(=O)[C@H](CC(C)C)NC(=O)[C@@H](CC(C)C)NC(=O)[C@H](CCN)NC1=O)[C@@H](C)O [colistin] was run?
The OD600 was inactive: 0.81.

How did the OD600 turn out when CN(CCOc1ccc(CC2SC(=O)NC2=O)cc1)c1ccccn1 (centres undefined) [Rosiglitazone maleate] + CCC(C)CCCC(=O)N[C@@H](CCN)C(=O)N[C@H](C(=O)N[C@@H](CCN)C(=O)N[C@H]1CCNC(=O)[C@H]([C@@H](C)O)NC(=O)[C@H](CCN)NC(=O)[C@H](CCN)NC(=O)[C@H](CC(C)C)NC(=O)[C@@H](CC(C)C)NC(=O)[C@H](CCN)NC1=O)[C@@H](C)O [colistin] was run?
The OD600 was inactive: 0.866.

Which OD600 does the source give for CC(C)(C)NCC(O)c1cc(O)cc(O)c1 (centres undefined) [Terbutaline Sulfate] + CCC(C)CCCC(=O)N[C@@H](CCN)C(=O)N[C@H](C(=O)N[C@@H](CCN)C(=O)N[C@H]1CCNC(=O)[C@H]([C@@H](C)O)NC(=O)[C@H](CCN)NC(=O)[C@H](CCN)NC(=O)[C@H](CC(C)C)NC(=O)[C@@H](CC(C)C)NC(=O)[C@H](CCN)NC1=O)[C@@H](C)O [colistin] here?
Its OD600 is inactive: 0.722.

Which OD600 does the source give for CN(C)C(=N)NC(=N)N [Metformin] + CCC(C)CCCC(=O)N[C@@H](CCN)C(=O)N[C@H](C(=O)N[C@@H](CCN)C(=O)N[C@H]1CCNC(=O)[C@H]([C@@H](C)O)NC(=O)[C@H](CCN)NC(=O)[C@H](CCN)NC(=O)[C@H](CC(C)C)NC(=O)[C@@H](CC(C)C)NC(=O)[C@H](CCN)NC1=O)[C@@H](C)O [colistin] here?
Its OD600 is inactive: 1.11.

Which OD600 does the source give for O=C(C1CCCCC1)N1CC(=O)N2CCc3ccccc3C2C1 (centres undefined) [Praziquantel] + CCC(C)CCCC(=O)N[C@@H](CCN)C(=O)N[C@H](C(=O)N[C@@H](CCN)C(=O)N[C@H]1CCNC(=O)[C@H]([C@@H](C)O)NC(=O)[C@H](CCN)NC(=O)[C@H](CCN)NC(=O)[C@H](CC(C)C)NC(=O)[C@@H](CC(C)C)NC(=O)[C@H](CCN)NC1=O)[C@@H](C)O [colistin] here?
Its OD600 is inactive: 0.74.

How did the OD600 turn out when CCCN(CCC)S(=O)(=O)c1ccc(C(=O)O)cc1 [Probenecid] + CCC(C)CCCC(=O)N[C@@H](CCN)C(=O)N[C@H](C(=O)N[C@@H](CCN)C(=O)N[C@H]1CCNC(=O)[C@H]([C@@H](C)O)NC(=O)[C@H](CCN)NC(=O)[C@H](CCN)NC(=O)[C@H](CC(C)C)NC(=O)[C@@H](CC(C)C)NC(=O)[C@H](CCN)NC1=O)[C@@H](C)O [colistin] was run?
The OD600 was inactive: 1.15.

For C[C@H](CCC(=O)NCCS(=O)(=O)O)[C@H]1CC[C@H]2[C@@H]3[C@@H](O)C[C@@H]4C[C@H](O)CC[C@]4(C)[C@H]3CC[C@]12C [Tauroursodeoxycholate] + CCC(C)CCCC(=O)N[C@@H](CCN)C(=O)N[C@H](C(=O)N[C@@H](CCN)C(=O)N[C@H]1CCNC(=O)[C@H]([C@@H](C)O)NC(=O)[C@H](CCN)NC(=O)[C@H](CCN)NC(=O)[C@H](CC(C)C)NC(=O)[C@@H](CC(C)C)NC(=O)[C@H](CCN)NC1=O)[C@@H](C)O [colistin], which OD600 is on record?
Its OD600 is inactive: 0.789.

How did the OD600 turn out when NNC(=O)c1ccncc1 [Isoniazid] + CCC(C)CCCC(=O)N[C@@H](CCN)C(=O)N[C@H](C(=O)N[C@@H](CCN)C(=O)N[C@H]1CCNC(=O)[C@H]([C@@H](C)O)NC(=O)[C@H](CCN)NC(=O)[C@H](CCN)NC(=O)[C@H](CC(C)C)NC(=O)[C@@H](CC(C)C)NC(=O)[C@H](CCN)NC1=O)[C@@H](C)O [colistin] was run?
Its OD600 is inactive: 1.29.

N#Cc1ccc(C(c2ccc(C#N)cc2)n2cncn2)cc1 [Letrozole] + CCC(C)CCCC(=O)N[C@@H](CCN)C(=O)N[C@H](C(=O)N[C@@H](CCN)C(=O)N[C@H]1CCNC(=O)[C@H]([C@@H](C)O)NC(=O)[C@H](CCN)NC(=O)[C@H](CCN)NC(=O)[C@H](CC(C)C)NC(=O)[C@@H](CC(C)C)NC(=O)[C@H](CCN)NC1=O)[C@@H](C)O [colistin] was tested. Which OD600 did it give?
The OD600 was inactive: 1.03.

CCN(CC)CC#CCOC(=O)C(O)(c1ccccc1)C1CCCCC1 (centres undefined) [Oxybutynin chloride] + CCC(C)CCCC(=O)N[C@@H](CCN)C(=O)N[C@H](C(=O)N[C@@H](CCN)C(=O)N[C@H]1CCNC(=O)[C@H]([C@@H](C)O)NC(=O)[C@H](CCN)NC(=O)[C@H](CCN)NC(=O)[C@H](CC(C)C)NC(=O)[C@@H](CC(C)C)NC(=O)[C@H](CCN)NC1=O)[C@@H](C)O [colistin] was tested. Which OD600 did it give?
The OD600 was inactive: 1.05.

O=C(OC[C@H]1O[C@@H](OC(=O)c2cc(O)c(O)c(OC(=O)c3cc(O)c(O)c(O)c3)c2)[C@H](OC(=O)c2cc(O)c(O)c(OC(=O)c3cc(O)c(O)c(O)c3)c2)[C@@H](OC(=O)c2cc(O)c(O)c(OC(=O)c3cc(O)c(O)c(O)c3)c2)[C@@H]1OC(=O)c1cc(O)c(O)c(OC(=O)c2cc(O)c(O)c(O)c2)c1)c1cc(O)c(O)c(OC(=O)c2cc(O)c(O)c(O)c2)c1 [Tannic acid] + CCC(C)CCCC(=O)N[C@@H](CCN)C(=O)N[C@H](C(=O)N[C@@H](CCN)C(=O)N[C@H]1CCNC(=O)[C@H]([C@@H](C)O)NC(=O)[C@H](CCN)NC(=O)[C@H](CCN)NC(=O)[C@H](CC(C)C)NC(=O)[C@@H](CC(C)C)NC(=O)[C@H](CCN)NC1=O)[C@@H](C)O [colistin] was tested. Which OD600 did it give?
The OD600 was inactive: 1.12.

From the supplement of paper PMC11546906
